These are yes or no findings as the source states them, for the method shown. Binding seen in cells or lysates may run through a third protein. Some binding calls cover weakened binding; strength is not graded here.
Target: HA-HIF1α P402A/P564A (UniProt Q16665)
Experiment: co-IP; HEK293FT cells transfected with HA-HIF1α P402A/P564A plasmid or empty vector for 24 h; extracted proteins (20 μg) immunoprecipitated with an anti-HA antibody, SDS-PAGE and blotting with the indicated antibodies

Chains of the proteins cited; added tags and fusions are not shown. Lines headed by an entry give the natural chain unless they say otherwise; changes in a name come on top.
UniProt Q16665: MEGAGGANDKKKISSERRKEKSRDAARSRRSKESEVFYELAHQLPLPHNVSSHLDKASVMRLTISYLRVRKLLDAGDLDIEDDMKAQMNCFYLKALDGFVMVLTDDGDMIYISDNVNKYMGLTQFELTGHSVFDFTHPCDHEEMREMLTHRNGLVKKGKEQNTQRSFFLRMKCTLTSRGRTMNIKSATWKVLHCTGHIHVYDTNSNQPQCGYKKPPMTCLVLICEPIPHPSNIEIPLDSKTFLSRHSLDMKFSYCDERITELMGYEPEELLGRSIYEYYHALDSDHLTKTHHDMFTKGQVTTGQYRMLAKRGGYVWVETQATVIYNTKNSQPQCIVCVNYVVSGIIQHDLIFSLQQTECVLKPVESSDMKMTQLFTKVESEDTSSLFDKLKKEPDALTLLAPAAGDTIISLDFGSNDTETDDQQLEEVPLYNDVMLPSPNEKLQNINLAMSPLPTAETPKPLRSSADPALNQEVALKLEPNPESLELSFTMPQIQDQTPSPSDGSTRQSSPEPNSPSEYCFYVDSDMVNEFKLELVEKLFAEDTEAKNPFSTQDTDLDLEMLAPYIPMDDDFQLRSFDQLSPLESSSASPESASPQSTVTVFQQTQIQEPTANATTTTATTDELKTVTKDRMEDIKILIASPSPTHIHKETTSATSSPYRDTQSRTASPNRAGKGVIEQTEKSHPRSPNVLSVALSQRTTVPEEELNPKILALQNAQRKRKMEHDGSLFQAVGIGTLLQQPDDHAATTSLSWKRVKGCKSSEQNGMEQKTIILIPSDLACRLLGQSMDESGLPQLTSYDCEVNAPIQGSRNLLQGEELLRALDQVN
UniProt P12004: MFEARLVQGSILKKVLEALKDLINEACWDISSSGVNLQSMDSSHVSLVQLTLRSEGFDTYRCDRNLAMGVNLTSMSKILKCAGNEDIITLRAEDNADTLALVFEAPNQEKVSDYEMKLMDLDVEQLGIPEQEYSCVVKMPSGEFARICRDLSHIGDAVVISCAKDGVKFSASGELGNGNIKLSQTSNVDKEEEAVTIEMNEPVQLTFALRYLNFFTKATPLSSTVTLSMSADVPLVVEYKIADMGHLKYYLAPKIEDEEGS
UniProt P04406: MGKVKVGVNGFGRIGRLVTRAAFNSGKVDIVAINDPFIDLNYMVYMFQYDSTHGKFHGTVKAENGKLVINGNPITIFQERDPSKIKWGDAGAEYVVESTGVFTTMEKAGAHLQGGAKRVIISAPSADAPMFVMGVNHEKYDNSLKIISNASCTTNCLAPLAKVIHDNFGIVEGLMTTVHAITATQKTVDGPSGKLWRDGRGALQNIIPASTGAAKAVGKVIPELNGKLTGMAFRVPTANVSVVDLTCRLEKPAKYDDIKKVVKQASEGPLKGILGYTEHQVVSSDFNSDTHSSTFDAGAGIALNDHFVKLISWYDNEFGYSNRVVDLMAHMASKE
UniProt Q9NS91: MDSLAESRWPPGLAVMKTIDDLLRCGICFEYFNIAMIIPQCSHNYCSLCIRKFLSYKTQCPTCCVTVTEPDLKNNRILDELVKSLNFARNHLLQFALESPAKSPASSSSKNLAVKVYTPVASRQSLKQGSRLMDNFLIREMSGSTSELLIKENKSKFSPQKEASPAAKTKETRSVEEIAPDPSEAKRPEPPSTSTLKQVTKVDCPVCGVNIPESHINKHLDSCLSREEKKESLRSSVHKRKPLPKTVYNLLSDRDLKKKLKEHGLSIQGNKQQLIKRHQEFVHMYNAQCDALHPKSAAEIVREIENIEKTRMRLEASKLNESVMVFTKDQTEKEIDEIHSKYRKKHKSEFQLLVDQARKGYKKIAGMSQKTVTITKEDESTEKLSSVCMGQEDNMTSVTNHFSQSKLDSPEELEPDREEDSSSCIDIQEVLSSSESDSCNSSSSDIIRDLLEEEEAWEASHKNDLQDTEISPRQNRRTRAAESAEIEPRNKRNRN

Row | binding | Substance
1 | binds | PCNA (from UniProt P12004 1-261)
2 | no binding | GAPDH (from UniProt P04406 1-335)
3 | binds | RAD18 (from UniProt Q9NS91 1-495)
